In patent publication US4668663A (Merck & Co., Inc., priority 1984, dated 1987):

Assay: general procedure: Boc solid-phase peptide synthesis; BOC-Phe esterified to 2% cross-linked polystyrene-divinylbenzene; dicyclohexylcarbodiimide with 1-hydroxybenzotriazole hydrate
Settings: whole synthesis; for final HPLC purity / final purity (method not given): scale of the general procedure 2 mmol; for final purity (method not given): TLC

Substance	final HPLC purity	final purity (method not given)	isolated mass (scale 1 mmole)
PEPTIDE1{[IVA].H.P.[BisHomoPhe].H.[Sta].L.F.[am]}$$$$V2.0	92%	90%	–
PEPTIDE1{[IVA].H.P.[Hph].H.[Sta].L.F.[am]}$$$$V2.0	88%	90%	145 mg

Some peptides are written in HELM: one residue between dots, names in brackets for other building blocks, links after the first $.
